Assay results as given in PMC9353266.
Results are given in words; binding and its absence hold for the method and conditions named. In cells and extracts the contact can be indirect. Some binding calls cover weakened binding; strength is not graded here. Sequences can lack the tags named with a protein.

Amino acid sequences for entries named in this document (tags omitted).
UniProt P09528: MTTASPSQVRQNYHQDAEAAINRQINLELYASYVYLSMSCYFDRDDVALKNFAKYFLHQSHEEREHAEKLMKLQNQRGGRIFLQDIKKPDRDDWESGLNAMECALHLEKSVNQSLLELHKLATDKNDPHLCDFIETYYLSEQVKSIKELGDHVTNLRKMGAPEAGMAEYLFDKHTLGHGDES

Molecular target: FLAG-tagged FTH1 (ferritin heavy chain) (mouse (cDNA from HEI-OC1 cells)) (UniProt P09528)
Test: co-IP; WT and NPC1-/- HEI-OC1 cells co-transfected with FLAG-Fth1 and HA-NCOA4 for 48 h; IP lysis buffer; ANTI-FLAG M2 Affinity Gel, 4°C overnight; five washes; immunoblot with anti-FLAG and anti-HA; empty FLAG vector as control

binding: binds
B1: HA-tagged NCOA4 (nuclear receptor coactivator 4) (protein, UniProt Q5U4H9 1-625)
chain: MNTSLEQSGCYSNRETLLRCSDARRELELAIGGVLRAEQQIKDNLREVKAQIHSCISRHLECLRSREVWLNEQVDLIYQLKEETLQQQAQQLYWLMGQFNCLIHQLEYTQNKDLANQVSVCLERLGSLALKPEDSTVLLFEADTSALRQTITTFGSLKTIQIPEHLMAHASSSSIGPFLEKRGYIQVPEQKSASSGTAVSLSEWLLVSKPAIGLQAPYVPSTNPQDWLIPKQTSENSQTSARACSFFSDAWGNLKGLENWLLNSHQQEIAGKPSSSKCNSHCSTSSFSPEAEKAEDVELLDQDELDLSDWLVTPQEPCELEKPVDGSWETSEKFKLLFQVFREPYNVSDWLVKPDSCTNCQGNQPRGVEIENLGNLKCLNDHLEAKKSVSVPGATISDGWLAQNHQDTWKVEEVCKANEPCTSFAECVCDDNCEKEAMYKWLLKKGGKDKNGMPMEPKSEPEKHRESLTLWLCPSRNELTEQAKAPKAMAPARIADSFHVIKNSSLSEWLMGPTCKGGPKDVPNTEERAGKEMLQSSMATSWCPFNTADWVLPGKKVGSLSQFPSGEDKWLLRKKAQEAFLNSPLQEERNFRPDCYGLPAVCDLFACMQLKVDKEKWLYRTPLQM
